Assay results as given in article doi:10.1101/2020.01.21.913905.
No constants are given. Whether binding was seen depends on the method and setting. Binding seen in cells or lysates may run through a third protein. Some binding calls cover weakened binding; strength is not graded here. One block for each substance: values may come before it.

Protein sequences, listed by entry. Tags and fused reporters are not part of them. Lines headed by an entry give the natural chain unless they say otherwise; changes in a name come on top.
UniProt P36397: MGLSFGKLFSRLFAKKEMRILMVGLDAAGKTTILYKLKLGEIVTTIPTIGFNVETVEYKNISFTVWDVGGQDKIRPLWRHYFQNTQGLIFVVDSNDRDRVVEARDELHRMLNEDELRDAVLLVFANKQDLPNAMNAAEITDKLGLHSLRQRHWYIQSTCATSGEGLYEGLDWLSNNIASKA

What was measured:
[1] = target: ARF1-Q71L-YFP (Arabidopsis thaliana) (UniProt P36397); assay: co-IP
[2] = target: ARF1-T31N-YFP (Arabidopsis thaliana) (UniProt P36397); assay: co-IP
[3] = target: ARF1-Q71L-YFP (Arabidopsis thaliana) (UniProt P36397); assay: FRET or BRET
[4] = target: ARF1-Y35A,Q71L-GFP (Arabidopsis thaliana) (UniProt P36397); assay: FRET or BRET

binding [1]: binds
binding [2]: binds
Substance: endogenous ARF1 (from UniProt P36397 1-181)

binding [3]: binds
Substance: ARF1-Q71L-YFP (from UniProt P36397 1-181)

binding [4]: no binding
Substance: ARF1-Y35A,Q71L-GFP (from UniProt P36397 1-181)
